Results as given in paper PMC10141943.
Results are given in words; binding and its absence hold for the method and conditions named. In cells and extracts the contact can be indirect. Some binding calls cover weakened binding; strength is not graded here. Where a sequence is shown, tags or fusion partners need not be part of it.

Amino acid sequences for entries named in this document (tags omitted).
UniProt Q01629: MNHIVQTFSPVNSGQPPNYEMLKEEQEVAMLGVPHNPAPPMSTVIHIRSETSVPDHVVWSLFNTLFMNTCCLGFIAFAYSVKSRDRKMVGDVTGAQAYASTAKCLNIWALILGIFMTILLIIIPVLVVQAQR

Biological target: T1, FLAG-MDA5 (melanoma differentiation-associated protein 5) (UniProt Q9BYX4)
T1 sequence: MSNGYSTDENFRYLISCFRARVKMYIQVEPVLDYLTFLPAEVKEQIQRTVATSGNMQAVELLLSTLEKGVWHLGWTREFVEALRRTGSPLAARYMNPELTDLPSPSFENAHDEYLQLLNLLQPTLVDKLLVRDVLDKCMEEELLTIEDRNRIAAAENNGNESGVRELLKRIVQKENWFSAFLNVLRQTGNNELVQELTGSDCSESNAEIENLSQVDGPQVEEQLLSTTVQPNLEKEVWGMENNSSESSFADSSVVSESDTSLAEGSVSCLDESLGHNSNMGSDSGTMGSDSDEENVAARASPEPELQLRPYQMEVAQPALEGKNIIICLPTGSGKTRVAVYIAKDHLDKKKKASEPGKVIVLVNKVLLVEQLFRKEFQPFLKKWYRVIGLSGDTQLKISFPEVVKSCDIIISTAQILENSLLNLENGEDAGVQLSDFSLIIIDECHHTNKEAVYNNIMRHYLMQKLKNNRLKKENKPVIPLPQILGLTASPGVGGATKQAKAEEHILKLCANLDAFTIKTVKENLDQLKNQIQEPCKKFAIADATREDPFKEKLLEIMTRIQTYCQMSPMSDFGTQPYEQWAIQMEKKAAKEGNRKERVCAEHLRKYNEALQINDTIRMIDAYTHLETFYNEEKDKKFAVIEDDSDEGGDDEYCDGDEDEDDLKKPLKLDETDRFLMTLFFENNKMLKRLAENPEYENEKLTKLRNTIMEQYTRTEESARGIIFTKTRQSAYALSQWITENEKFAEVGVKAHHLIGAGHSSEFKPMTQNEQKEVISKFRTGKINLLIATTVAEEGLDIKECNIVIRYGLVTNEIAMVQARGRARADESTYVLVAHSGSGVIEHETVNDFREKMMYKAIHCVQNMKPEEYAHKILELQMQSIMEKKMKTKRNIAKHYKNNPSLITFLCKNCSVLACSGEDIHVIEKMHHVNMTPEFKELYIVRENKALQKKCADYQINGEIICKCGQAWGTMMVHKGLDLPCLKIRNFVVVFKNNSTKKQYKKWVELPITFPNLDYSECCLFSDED
Assay: co-IP

Myc-IFITM2 (human interferon-inducible transmembrane protein 2) (from UniProt Q01629 1-132)
binding: binds
